Experimental data as given in article PMC5760697, “Loss of the Mitochondrial Fatty Acid β-Oxidation Protein Medium-Chain Acyl-Coenzyme A Dehydrogenase Disrupts Oxidative Phosphorylation Protein Complex Stability and Function” (Scientific Reports, 2018).
These are yes or no findings as the source states them, for the method shown. Some binding calls cover weakened binding; strength is not graded here.

The chains behind the UniProt entries cited, without tags or fusion partners. Residues count along the entry.
UniProt P10809, residues 27-573: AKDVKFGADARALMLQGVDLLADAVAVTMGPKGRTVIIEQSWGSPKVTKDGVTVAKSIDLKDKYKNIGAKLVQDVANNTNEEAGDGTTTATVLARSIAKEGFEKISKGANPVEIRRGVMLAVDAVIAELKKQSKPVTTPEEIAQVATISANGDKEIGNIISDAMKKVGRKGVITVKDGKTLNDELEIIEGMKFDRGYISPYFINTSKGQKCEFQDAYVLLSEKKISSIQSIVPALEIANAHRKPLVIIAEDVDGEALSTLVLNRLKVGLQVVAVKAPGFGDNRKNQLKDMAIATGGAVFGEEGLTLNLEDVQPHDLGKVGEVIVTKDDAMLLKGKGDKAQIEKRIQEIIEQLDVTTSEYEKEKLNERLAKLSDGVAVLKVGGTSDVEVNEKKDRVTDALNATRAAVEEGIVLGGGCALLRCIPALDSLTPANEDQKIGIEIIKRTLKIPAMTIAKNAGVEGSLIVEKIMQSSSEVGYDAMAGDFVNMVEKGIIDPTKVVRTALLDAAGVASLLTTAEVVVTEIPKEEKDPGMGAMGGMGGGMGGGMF

What was measured:
[1] = target: mitochondrial Hsp60 chaperonin complex (human (endogenous in 143B and HepG2)) (UniProt P10809); assay: native gel or EMSA; BN-PAGE and Western blot of HepG2 cell mitochondria solubilised in 1% (w/v) digitonin, 0.2% (w/v) dodecyl maltoside or 1% (v/v) TX-100; anti-MCAD or anti-NDUFA9 antibodies
[2] = target: mitochondrial Hsp60 chaperonin complex (human (endogenous in 143B and HepG2)) (UniProt P10809); assay: native gel or EMSA; 35S-labelled in vitro translated protein incubated at 37 °C with freshly isolated 143B mitochondria (5 to 60 min), mitochondria solubilised in 1% (v/v) TX-100 or 1% (w/v) digitonin, BN-PAGE

binding [1]: binds
binding [2]: binds
B1: Medium-chain acyl-Coenzyme A dehydrogenase (enzyme, UniProt P11310 26-421, looked up)
chain: KANRQREPGLGFSFEFTEQQKEFQATARKFAREEIIPVAAEYDKTGEYPVPLIRRAWELGLMNTHIPENCGGLGLGTFDACLISEELAYGCTGVQTAIEGNSLGQMPIIIAGNDQQKKKYLGRMTEEPLMCAYCVTEPGAGSDVAGIKTKAEKKGDEYIINGQKMWITNGGKANWYFLLARSDPDPKAPANKAFTGFIVEADTPGIQIGRKELNMGQRCSDTRGIVFEDVKVPKENVLIGDGAGFKVAMGAFDKTRPVVAAGAVGLAQRALDEATKYALERKTFGKLLVEHQAISFMLAEMAMKVELARMSYQRAAWEVDSGRRNTYYASIAKAFAGDIANQLATDAVQILGGNGFNTEYPVEKLMRDAKIYQIYEGTSQIQRLIVAREHIDKYKN
modifications: [35S]-methionine/cysteine
notes: MCAD cDNA translated as the precursor; after import a proteinase K resistant mature form is seen; 421 amino acid precursor, mature 396 amino acids; Imported into mitochondria that hold endogenous MCAD, so the labelled ~175 kDa tetramer may be mixed with endogenous chains; also called MCAD; radiolabeled MCAD; source: in vitro translated (pGEM4Z, TnT Coupled Reticulocyte Lysate System), imported …
